Laboratory results from the supplement of paper PMC12819154, “High-throughput peptide-centric local stability assay extends protein–ligand identification to membrane proteins, tissues and bacteria” (Nature Structural & Molecular Biology, 2025).
The list shows a part of the results. Most entries show no effect beyond the scatter of the controls.

By UniProt entry, the sequences of proteins in these tests, tags left out. Where a name states a change or a piece, a line headed by the entry shows the natural chain unless it says otherwise.
UniProt P02916, whole entry: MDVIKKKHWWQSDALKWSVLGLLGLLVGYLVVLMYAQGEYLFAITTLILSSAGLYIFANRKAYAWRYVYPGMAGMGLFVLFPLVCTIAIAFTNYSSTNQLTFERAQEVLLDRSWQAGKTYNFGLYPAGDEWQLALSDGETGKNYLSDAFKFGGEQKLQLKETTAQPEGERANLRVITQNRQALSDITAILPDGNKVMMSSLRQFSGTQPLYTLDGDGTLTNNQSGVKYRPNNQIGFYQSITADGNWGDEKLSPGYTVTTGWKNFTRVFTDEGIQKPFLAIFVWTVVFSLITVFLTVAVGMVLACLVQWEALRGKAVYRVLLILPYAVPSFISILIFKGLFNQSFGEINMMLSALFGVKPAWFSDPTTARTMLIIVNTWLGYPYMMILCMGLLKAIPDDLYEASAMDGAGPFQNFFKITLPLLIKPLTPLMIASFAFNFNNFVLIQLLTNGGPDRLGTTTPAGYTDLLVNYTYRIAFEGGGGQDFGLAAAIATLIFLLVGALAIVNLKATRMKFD
UniProt P08190: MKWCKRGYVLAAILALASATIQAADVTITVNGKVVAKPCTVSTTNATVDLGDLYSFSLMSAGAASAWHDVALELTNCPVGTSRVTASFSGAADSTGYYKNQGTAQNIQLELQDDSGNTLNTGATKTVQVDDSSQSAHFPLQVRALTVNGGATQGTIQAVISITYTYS
UniProt P03023, whole entry: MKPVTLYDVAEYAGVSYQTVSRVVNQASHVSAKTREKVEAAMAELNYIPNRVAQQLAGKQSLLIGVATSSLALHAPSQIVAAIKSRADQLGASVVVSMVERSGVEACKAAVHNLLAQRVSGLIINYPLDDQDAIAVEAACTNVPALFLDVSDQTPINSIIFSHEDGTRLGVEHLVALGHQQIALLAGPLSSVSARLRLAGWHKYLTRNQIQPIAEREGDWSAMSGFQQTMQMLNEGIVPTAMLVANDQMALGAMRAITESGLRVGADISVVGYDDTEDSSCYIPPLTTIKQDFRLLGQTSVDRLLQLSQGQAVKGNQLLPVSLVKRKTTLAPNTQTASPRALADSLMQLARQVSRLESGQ
UniProt P09549: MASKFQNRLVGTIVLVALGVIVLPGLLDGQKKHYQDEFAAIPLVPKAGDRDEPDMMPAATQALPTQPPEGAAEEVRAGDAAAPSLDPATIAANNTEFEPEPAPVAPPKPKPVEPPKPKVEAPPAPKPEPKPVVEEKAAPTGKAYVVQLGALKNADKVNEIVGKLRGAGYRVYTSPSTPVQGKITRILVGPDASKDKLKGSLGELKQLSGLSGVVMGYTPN
UniProt P08368: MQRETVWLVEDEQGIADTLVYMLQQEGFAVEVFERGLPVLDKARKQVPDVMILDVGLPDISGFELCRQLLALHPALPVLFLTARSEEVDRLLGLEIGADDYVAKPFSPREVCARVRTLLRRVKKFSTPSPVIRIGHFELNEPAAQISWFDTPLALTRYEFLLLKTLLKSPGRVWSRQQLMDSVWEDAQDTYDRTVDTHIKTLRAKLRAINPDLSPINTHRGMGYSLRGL
UniProt P07026: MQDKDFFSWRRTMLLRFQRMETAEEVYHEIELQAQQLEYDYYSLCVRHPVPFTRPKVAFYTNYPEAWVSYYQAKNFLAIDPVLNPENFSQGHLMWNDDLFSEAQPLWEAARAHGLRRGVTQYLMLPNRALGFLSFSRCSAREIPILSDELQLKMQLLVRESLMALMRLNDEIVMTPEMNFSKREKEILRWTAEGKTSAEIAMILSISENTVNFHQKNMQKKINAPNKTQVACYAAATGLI
UniProt P03024: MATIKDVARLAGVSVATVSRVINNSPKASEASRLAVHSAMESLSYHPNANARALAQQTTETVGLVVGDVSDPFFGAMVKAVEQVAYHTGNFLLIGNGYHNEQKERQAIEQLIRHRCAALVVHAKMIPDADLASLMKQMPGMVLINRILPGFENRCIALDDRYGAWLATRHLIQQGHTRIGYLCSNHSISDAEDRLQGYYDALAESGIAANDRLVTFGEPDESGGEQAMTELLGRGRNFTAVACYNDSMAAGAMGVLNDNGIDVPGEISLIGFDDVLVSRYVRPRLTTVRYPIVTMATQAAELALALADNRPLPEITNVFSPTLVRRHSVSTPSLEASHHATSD
UniProt P08200: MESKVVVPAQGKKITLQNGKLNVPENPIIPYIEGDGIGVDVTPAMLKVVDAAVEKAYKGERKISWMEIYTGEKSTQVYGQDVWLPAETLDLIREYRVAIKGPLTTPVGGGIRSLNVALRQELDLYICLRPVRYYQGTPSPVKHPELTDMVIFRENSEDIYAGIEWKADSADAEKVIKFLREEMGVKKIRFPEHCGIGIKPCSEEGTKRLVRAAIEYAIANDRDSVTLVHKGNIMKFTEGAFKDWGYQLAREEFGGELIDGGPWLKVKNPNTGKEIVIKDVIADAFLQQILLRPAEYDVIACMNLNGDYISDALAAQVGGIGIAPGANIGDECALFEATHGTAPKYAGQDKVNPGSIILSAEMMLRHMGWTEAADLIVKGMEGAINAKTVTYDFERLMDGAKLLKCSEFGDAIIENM
UniProt P00887: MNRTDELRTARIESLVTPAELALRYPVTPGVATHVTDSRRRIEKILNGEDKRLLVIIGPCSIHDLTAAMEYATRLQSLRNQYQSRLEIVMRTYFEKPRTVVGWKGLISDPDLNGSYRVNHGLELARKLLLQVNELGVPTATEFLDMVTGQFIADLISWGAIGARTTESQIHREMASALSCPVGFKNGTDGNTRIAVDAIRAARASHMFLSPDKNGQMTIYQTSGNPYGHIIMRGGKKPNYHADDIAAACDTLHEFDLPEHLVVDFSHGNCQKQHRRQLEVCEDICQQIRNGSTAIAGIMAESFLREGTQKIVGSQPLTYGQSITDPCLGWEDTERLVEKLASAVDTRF
UniProt P09148: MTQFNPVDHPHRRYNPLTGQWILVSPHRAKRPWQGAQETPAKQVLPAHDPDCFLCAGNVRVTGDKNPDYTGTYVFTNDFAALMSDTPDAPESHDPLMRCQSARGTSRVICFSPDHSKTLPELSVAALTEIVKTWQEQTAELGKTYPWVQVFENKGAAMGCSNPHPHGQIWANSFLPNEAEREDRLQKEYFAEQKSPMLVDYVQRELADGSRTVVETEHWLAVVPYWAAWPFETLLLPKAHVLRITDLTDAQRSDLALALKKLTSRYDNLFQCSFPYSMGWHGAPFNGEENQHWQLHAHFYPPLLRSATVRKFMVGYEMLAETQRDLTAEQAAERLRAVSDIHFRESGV
UniProt P06136, whole entry: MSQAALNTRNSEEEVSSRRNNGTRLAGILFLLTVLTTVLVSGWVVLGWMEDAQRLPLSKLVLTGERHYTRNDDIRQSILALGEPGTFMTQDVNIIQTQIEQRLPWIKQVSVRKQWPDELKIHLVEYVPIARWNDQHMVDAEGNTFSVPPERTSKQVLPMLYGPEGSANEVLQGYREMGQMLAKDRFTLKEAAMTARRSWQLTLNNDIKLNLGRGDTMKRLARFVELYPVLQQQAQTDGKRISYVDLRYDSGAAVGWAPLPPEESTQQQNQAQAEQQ
UniProt P09153: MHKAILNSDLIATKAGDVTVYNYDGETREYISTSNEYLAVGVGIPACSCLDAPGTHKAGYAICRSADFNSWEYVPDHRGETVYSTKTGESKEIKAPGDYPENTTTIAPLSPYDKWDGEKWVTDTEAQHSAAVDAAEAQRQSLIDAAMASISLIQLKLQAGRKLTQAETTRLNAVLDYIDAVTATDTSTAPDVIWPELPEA
UniProt P09053: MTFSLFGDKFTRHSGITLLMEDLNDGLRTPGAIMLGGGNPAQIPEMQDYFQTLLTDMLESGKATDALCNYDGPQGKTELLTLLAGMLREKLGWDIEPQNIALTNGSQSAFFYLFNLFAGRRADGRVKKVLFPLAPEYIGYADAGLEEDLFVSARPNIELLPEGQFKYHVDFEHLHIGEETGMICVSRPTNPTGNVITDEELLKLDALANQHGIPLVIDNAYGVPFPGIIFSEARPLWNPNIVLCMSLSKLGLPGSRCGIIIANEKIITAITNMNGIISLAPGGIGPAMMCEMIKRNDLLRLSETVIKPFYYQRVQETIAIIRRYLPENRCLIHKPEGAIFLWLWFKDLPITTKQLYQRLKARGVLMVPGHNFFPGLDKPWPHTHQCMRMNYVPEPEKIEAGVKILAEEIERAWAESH
UniProt P0A6H5: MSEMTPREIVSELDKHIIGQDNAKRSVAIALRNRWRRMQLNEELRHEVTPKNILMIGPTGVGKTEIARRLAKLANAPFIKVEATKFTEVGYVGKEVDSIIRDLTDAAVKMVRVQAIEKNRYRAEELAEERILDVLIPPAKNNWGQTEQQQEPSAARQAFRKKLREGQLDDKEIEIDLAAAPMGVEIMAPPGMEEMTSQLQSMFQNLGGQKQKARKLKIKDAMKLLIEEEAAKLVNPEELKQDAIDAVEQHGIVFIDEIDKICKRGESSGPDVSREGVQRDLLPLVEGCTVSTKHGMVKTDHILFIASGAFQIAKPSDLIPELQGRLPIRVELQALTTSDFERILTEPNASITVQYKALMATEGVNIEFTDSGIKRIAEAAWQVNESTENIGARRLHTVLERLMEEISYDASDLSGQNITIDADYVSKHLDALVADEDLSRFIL
UniProt P00944: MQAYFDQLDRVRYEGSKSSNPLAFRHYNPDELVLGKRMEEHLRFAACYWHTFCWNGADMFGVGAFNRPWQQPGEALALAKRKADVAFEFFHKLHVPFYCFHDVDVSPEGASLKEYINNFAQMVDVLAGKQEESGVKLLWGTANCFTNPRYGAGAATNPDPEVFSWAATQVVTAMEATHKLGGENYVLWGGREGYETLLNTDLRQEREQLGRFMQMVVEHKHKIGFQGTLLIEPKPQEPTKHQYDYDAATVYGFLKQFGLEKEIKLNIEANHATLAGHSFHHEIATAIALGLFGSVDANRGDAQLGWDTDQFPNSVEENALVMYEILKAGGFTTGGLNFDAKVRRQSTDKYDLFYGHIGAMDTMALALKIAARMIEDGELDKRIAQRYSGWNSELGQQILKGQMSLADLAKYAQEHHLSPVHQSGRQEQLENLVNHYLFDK
UniProt P02932: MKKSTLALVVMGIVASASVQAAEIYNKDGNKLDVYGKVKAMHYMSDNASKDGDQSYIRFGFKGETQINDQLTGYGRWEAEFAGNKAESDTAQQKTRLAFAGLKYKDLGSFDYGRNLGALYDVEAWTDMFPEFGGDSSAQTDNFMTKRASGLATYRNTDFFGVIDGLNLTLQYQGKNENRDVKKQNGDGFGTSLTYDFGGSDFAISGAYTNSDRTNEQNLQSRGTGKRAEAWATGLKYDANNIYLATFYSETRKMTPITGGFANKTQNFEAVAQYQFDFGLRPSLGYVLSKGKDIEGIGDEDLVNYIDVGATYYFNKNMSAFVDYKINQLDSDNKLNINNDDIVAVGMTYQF
UniProt P05827: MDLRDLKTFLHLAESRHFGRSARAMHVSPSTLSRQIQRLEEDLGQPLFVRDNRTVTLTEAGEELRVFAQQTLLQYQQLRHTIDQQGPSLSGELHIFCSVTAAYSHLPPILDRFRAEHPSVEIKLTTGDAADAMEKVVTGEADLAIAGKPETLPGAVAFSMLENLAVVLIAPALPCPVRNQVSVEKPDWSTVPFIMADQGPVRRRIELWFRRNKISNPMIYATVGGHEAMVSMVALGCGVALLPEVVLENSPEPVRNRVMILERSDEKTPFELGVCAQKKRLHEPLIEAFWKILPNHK
UniProt P07464: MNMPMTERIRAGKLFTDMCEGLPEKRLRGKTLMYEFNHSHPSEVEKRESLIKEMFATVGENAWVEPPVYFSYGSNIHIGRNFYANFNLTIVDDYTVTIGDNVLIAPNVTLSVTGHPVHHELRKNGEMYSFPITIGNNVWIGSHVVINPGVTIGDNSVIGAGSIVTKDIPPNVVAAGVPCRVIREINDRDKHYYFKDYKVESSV
UniProt P09323: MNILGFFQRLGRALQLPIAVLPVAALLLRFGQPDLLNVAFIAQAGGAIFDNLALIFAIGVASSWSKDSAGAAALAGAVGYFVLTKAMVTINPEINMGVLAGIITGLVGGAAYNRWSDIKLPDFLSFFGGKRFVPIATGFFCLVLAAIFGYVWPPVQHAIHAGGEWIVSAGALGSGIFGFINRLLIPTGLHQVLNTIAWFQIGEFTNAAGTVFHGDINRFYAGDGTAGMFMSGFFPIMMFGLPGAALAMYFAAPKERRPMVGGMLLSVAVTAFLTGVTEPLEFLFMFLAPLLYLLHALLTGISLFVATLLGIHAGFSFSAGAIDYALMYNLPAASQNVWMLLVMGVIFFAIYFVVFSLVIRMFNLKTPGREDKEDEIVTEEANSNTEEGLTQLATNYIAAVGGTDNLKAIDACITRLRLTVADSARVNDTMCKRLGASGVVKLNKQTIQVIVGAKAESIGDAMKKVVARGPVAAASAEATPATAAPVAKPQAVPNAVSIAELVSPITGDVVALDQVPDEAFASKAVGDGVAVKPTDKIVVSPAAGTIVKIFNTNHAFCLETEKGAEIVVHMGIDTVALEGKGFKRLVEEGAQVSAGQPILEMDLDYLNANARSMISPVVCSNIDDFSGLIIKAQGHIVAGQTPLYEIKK

The targets below were run with CC1(C)S[C@@H]2[C@H](NC(=O)[C@H](N)c3ccccc3)C(=O)N2[C@H]1C(=O)O [ampicillin] (assay: log2 fold change of tryptic peptide abundance, ligand vs vehicle (limited proteolysis) (log2 ratio); higher = more trypsin-susceptible (destabilized)). Details: ligand concentration: 10 uM; sample: E. coli crude lysate.

Row | Target | log2 fold change
1 | UniProt P02916 (peptide sequence: NYLSDAFK, peptide start residue: 143) | 0.197
2 | UniProt P02358 (peptide sequence: QLAYPINKLHK, peptide start residue: 46) | -0.165
3 | UniProt P08190 (peptide sequence: TVQVDDSSQSAHFPLQVR, peptide start residue: 126) | -0.621
4 | UniProt P03023 (peptide sequence: ALADSLMQLAR, peptide start residue: 341) | -0.532
5 | UniProt P09549 (peptide sequence: NADKVNEIVGK, peptide start residue: 153) | 0.315
6 | UniProt P07023 (peptide sequence: ESYSSENDKGFK, peptide start residue: 81) | -0.147
7 | UniProt P07014 (peptide sequence: IKPYLLNNGQNPPAR, peptide start residue: 117) | -0.086
8 | UniProt P08368 (peptide sequence: QLLALHPALPVLFLTAR, peptide start residue: 68) | -0.801
9 | UniProt P08400 (peptide sequence: VDVPMMLR, peptide start residue: 278) | -0.216
10 | UniProt P07026 (peptide sequence: ALGFLSFSR, peptide start residue: 129) | -0.0423
11 | UniProt P03024 (peptide sequence: ILPGFENR, peptide start residue: 147) | -0.0781
12 | UniProt P08200 (peptide sequence: DSVTLVHK, peptide start residue: 223) | 0.18
13 | UniProt P00887 (peptide sequence: VNHGLELARK, peptide start residue: 118) | 0.709
14 | UniProt P07001 (peptide sequence: AEMELFAAQAK, peptide start residue: 237) | 0.146
15 | UniProt P09148 (peptide sequence: RYNPLTGQWILVSPHR, peptide start residue: 13) | -0.441
16 | UniProt P06136 (peptide sequence: IHLVEYVPIAR, peptide start residue: 121) | -0.273

Quoted from the listing.
In log2 fold change, UniProt P08368 (peptide sequence: QLLALHPALPVLFLTAR, peptide start residue: 68) has -0.801
In log2 fold change, UniProt P02358 (peptide sequence: QLAYPINKLHK, peptide start residue: 46) has -0.165

Next entries follow.

Row | Target | log2 fold change
17 | UniProt P09153 (peptide sequence: AILNSDLIATK, peptide start residue: 4) | 0.326
18 | UniProt P05042 (peptide sequence: ASELLGGVR, peptide start residue: 114) | -0.202
19 | UniProt P03817 (peptide sequence: EYDTFCGAIDKLEAELK, peptide start residue: 94) | 0.124
20 | UniProt P09053 (peptide sequence: HSGITLLMEDLNDGLR, peptide start residue: 13) | 0.198
21 | UniProt P02942 (peptide sequence: QASHLALSASETAQR, peptide start residue: 325) | 0.28
22 | UniProt P07648 (peptide sequence: VKAHLTCLHTR, peptide start residue: 776) | 0.95
23 | UniProt P0A6H5 (peptide sequence: NILMIGPTGVGKTEIAR, peptide start residue: 52) | -0.27
24 | UniProt P00944 (peptide sequence: MIEDGELDKR, peptide start residue: 373) | 0.646
25 | UniProt P08957 (peptide sequence: LALMNCLLHDIEGNLDHGGAIR, peptide start residue: 224) | -0.302
26 | UniProt P02932 (peptide sequence: DGNKLDVYGK, peptide start residue: 28) | 0.263
27 | UniProt P05827 (peptide sequence: LHEPLIEAFWK, peptide start residue: 281) | -0.352
28 | UniProt P08401 (peptide sequence: FTDNILTQNAR, peptide start residue: 293) | -0.103
29 | UniProt P07464 (peptide sequence: LFTDMCEGLPEKR, peptide start residue: 14) | -0.325
30 | UniProt P09184 (peptide sequence: TEFWLEK, peptide start residue: 83) | 0.0682
31 | UniProt P09323 (peptide sequence: LNKQTIQVIVGAK, peptide start residue: 442) | 0.565
